Measurements reported in PMC10482247.

Biological target: T1, HA-SlSEP3 (UniProt A0ABM1GS83)
T1 sequence (looked up, limits assumed): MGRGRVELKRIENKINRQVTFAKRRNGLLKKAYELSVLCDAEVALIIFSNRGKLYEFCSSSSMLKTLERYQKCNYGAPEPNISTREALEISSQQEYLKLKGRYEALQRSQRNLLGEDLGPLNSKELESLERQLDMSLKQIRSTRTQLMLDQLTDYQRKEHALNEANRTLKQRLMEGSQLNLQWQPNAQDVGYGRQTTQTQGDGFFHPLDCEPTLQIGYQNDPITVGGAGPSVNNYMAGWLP
Assay: EMSA
Conditions: Beyotime chemiluminescent EMSA kit GS009; protein stored in 1x PBS; binding buffer, pH and temperature not given; protein in a lysate after overexpression

## ATGATGTTTACTAATTGG (double strand) [wild-type lc CArG probe (F/R)]
  binding result: binds

The exact form of at least one protein or probe is not confirmed. Where cells or extracts were used, other partners may take part. Tags and fusion partners may be left off the protein sequences shown.
